Test results as given in PubChem BioAssay AID330 (DTP/NCI, 2004).
The list does not hold the whole screen: it is rich in T/C values a quarter to a half above the control, in often repeated tests (any T/C) and in doses without a T/C. Other doses and runs of a compound stand elsewhere. T/C gives the treated animals as a percentage of the vehicle group. Some entries give survivors of the animals treated and no T/C: the source holds a T/C of zero for them, seemingly a mark for toxic or unscored doses. Some doses without a T/C left all or most animals alive at the check, yet need not have been tolerated: survival well below the control is almost never listed, so the zero probably covers shortened survival too. Survivors were counted at the toxicity check, usually on the fifth day, unless a day is given; later deaths do not show. Schedules are NCI's codes, read here as Q, the interval in days (D) or hours (H), X, the number of doses. Some doses were run more than once; the values are given in rising order. Where survival is the endpoint, this PubChem deposit counts one and a half times the control or more as active, and values a quarter to a half above the control carry no call in these data; other NCI protocols may use other cut-offs. Some T/C values are followed by the survivors on the day toxicity was checked, most often the fifth; without a count, all were alive then.

Test system: P388 leukemia ip, CD2F1 mice, survival T/C
Assay: NCI In Vivo Anticancer Drug Screen. Data for tumor model P388 Leukemia (intraperitoneal) in CD2F1 (CDF1) mice
Conditions: T/C endpoint: median survival time, higher T/C = longer survival
[1] = dose: 200.0 mg/kg/injection, schedule: Q01DX009 (ip), vehicle: saline with Tween-80
[2] = dose: 200.0 mg/kg/injection, schedule: Q04DX003 (ip), vehicle: saline with Tween-80
[3] = dose: 100.0 mg/kg/injection, schedule: Q01DX009 (ip), vehicle: saline
[4] = dose: 200.0 mg/kg/injection, schedule: Q01DX009 (ip), vehicle: saline
[5] = dose: 25.0 mg/kg/injection, schedule: Q01DX005 (ip), vehicle: saline with Tween-80
[6] = dose: 50.0 mg/kg/injection, schedule: Q01DX005 (ip), vehicle: saline with Tween-80
[7] = dose: 100.0 mg/kg/injection, schedule: Q01DX005 (ip), vehicle: saline with Tween-80
[8] = dose: 200.0 mg/kg/injection, schedule: Q01DX005 (ip), vehicle: saline with Tween-80
[9] = dose: 50.0 mg/kg/injection, schedule: Q01DX009 (ip), vehicle: saline with Tween-80
[10] = dose: 100.0 mg/kg/injection, schedule: Q01DX009 (ip), vehicle: saline with Tween-80
[11] = dose: 50.0 mg/kg/injection, schedule: Q01DX009 (ip), vehicle: Klucel (hydroxypropylcellulose) (HPC)
[12] = dose: 50.0 mg/kg/injection, schedule: Q01DX005 (ip), vehicle: distilled water + Tween-80
[13] = dose: 100.0 mg/kg/injection, schedule: Q01DX005 (ip), vehicle: distilled water + Tween-80
[14] = dose: 200.0 mg/kg/injection, schedule: Q01DX005 (ip), vehicle: distilled water + Tween-80
[15] = dose: 25.0 mg/kg/injection, schedule: Q01DX005 (ip), vehicle: distilled water + Tween-80

## CCCCCCCCC(=O)CCCC
[1]
  survivor count: 6 of 6
dose: 400.0 mg/kg/injection, schedule: Q04DX003 (ip), vehicle: saline
  survivor count: 6 of 6

## CN1C(=O)C23CC4=CC=CC(O)C4N2C(=O)C1(CO)SS3 (stereo not drawn)
dose: 12.5 mg/kg/injection, schedule: Q04DX002 (ip), vehicle: saline with Tween-80
  survivor count: 0 of 6
dose: 25.0 mg/kg/injection, schedule: Q04DX002 (ip), vehicle: saline with Tween-80
  survivor count: 0 of 6
dose: 50.0 mg/kg/injection, schedule: Q04DX002 (ip), vehicle: saline with Tween-80
  survivor count: 0 of 6

## CCOC1CC(C)(O)C(C(=O)OC)c2cc3c(c(O)c21)C(=O)c1c(O)cc2c(c1C3=O)OC1OC2(C)C(O)C(N(C)C)C1O (stereo not drawn)
dose: 1.6 mg/kg/injection, schedule: Q01DX009 (ip), vehicle: other
  T/C: 141 % of control
dose: 25.0 mg/kg/injection, schedule: Q01DX009 (ip), vehicle: other
  survivor count: 6 of 6

## Cc1c2ccncc2c(C)c2c1sc1ccccc12
dose: 12.5 mg/kg/injection, schedule: Q04DX003 (ip), vehicle: distilled water + Tween-80
  T/C: 133 % of control
dose: 25.0 mg/kg/injection, schedule: Q04DX003 (ip), vehicle: alkali diluted with water
  T/C: 127 % of control
dose: 25.0 mg/kg/injection, schedule: Q04DX003 (ip), vehicle: distilled water + Tween-80
  T/C: 126 % of control
dose: 50.0 mg/kg/injection, schedule: Q04DX003 (ip), vehicle: alkali diluted with water
  T/C: 148 % of control
dose: 50.0 mg/kg/injection, schedule: Q04DX003 (ip), vehicle: distilled water + Tween-80
  T/C: 140 % of control
dose: 100.0 mg/kg/injection, schedule: Q04DX003 (ip), vehicle: alkali diluted with water
  T/C: 145 % of control
dose: 100.0 mg/kg/injection, schedule: Q04DX003 (ip), vehicle: distilled water + Tween-80
  T/C: 133 % of control
dose: 400.0 mg/kg/injection, schedule: Q04DX003 (ip), vehicle: alkali diluted with water
  survivor count: 5 of 8

## Cc1c(Cl)c(Cl)nn1C(C)C(=O)N(C)C (stereo not drawn)
dose: 400.0 mg/kg/injection, schedule: Q04DX003 (ip), vehicle: Klucel (hydroxypropylcellulose) (HPC)
  survivor count: 6 of 6

## O=c1[nH]cc(COCC(F)(F)F)c(=O)[nH]1
[2]
  survivor count: 2 of 3

## CCCCC(CC)C[N+]1(C)CCOCC1 (stereo not drawn)
[3]
  survivor count: 2 of 6
[4]
  survivor count: 0 of 6

## CN=C(N)NN=C1c2ccccc2-c2ccccc21
dose: 100.0 mg/kg/injection, schedule: Q04DX002 (ip), vehicle: saline with Tween-80
  survivor count: 3 of 6

## CCS/C(=C/[P+](c1ccccc1)(c1ccccc1)c1ccccc1)SC
dose: 12.5 mg/kg/injection, schedule: Q01DX005 (ip), vehicle: saline with Tween-80
  survivor count: 6 of 6
[5]
  survivor count: 6 of 6
[6]
  survivor count: 2 of 6
[7]
  survivor count: 0 of 5
[8]
  survivor count: 0 of 6

## O=C(O)C(CS)NCCNC(CS)C(=O)O (stereo not drawn)
dose: 50.0 mg/kg/injection, schedule: Q01DX001 (ip), vehicle: Klucel (hydroxypropylcellulose) (HPC)
  survivor count: 1 of 6
dose: 100.0 mg/kg/injection, schedule: Q01DX001 (ip), vehicle: Klucel (hydroxypropylcellulose) (HPC)
  survivor count: 1 of 6
dose: 200.0 mg/kg/injection, schedule: Q01DX001 (ip), vehicle: Klucel (hydroxypropylcellulose) (HPC)
  survivor count: 0 of 6
dose: 400.0 mg/kg/injection, schedule: Q01DX001 (ip), vehicle: Klucel (hydroxypropylcellulose) (HPC)
  survivor count: 0 of 6

## NC(Cc1ccccc1)C(=O)CCl (stereo not drawn)
dose: 50.0 mg/kg/injection, schedule: Q01DX001 (ip), vehicle: saline
  survivor count: 1 of 6
dose: 100.0 mg/kg/injection, schedule: Q01DX001 (ip), vehicle: suspension in saline
  survivor count: 0 of 6
dose: 200.0 mg/kg/injection, schedule: Q01DX001 (ip), vehicle: suspension in saline
  survivor count: 0 of 6
dose: 400.0 mg/kg/injection, schedule: Q01DX001 (ip), vehicle: suspension in saline
  survivor count: 0 of 6

## COc1ccc(CC(N)c2ccccc2)cc1 (stereo not drawn)
[4]
  survivor count: 0 of 6

## O=C1C=C(Cl)C(O)C1(Cl)Cl (stereo not drawn)
dose: 25.0 mg/kg/injection, schedule: Q01DX009 (ip), vehicle: saline
  survivor count: 0 of 6
dose: 50.0 mg/kg/injection, schedule: Q01DX009 (ip), vehicle: saline
  survivor count: 0 of 6
[3]
  survivor count: 0 of 6
[4]
  survivor count: 0 of 6

## CN(C)C1=NC(N(C)C)=C2C=C(C(C)(C)C)C=C12
dose: 240.0 mg/kg/injection, schedule: Q01DX005 (ip), vehicle: Klucel (hydroxypropylcellulose) (HPC)
  survivor count: 1 of 6

## C/C=C(\C)C(=O)N/N=C\C=C\c1ccccc1
dose: 50.0 mg/kg/injection, schedule: Q01DX005 (ip), vehicle: Klucel (hydroxypropylcellulose) (HPC)
  survivor count: 5 of 5
dose: 100.0 mg/kg/injection, schedule: Q01DX005 (ip), vehicle: Klucel (hydroxypropylcellulose) (HPC)
  survivor count: 2 of 5
dose: 200.0 mg/kg/injection, schedule: Q01DX005 (ip), vehicle: Klucel (hydroxypropylcellulose) (HPC)
  survivor count: 1 of 4

## NCC1CC2CCC1CC2 (stereo not drawn)
[7]
  survivor count: 4 of 6
[8]
  survivor count: 0 of 6

## CC(CN(C)C)Oc1ccccc1NC1=C(Cl)C(=O)C(Nc2ccccc2OC(C)CN(C)C)=C(Cl)C1=O (stereo not drawn)
dose: 40.0 mg/kg/injection, schedule: Q01DX009 (ip), vehicle: saline
  survivor count: 1 of 6 and 3 of 6

## CN=S(=O)(OCCCCCOS(=O)(=NC)c1ccccc1)c1ccccc1 (stereo not drawn)
[9]
  T/C: 132 % of control
  survivor count: 6 of 6
[10]
  T/C: 140 [5 of 6 alive] and 141 % of control
  survivor count: 5 of 6
[1]
  survivor count: 0 of 6
dose: 400.0 mg/kg/injection, schedule: Q01DX009 (ip), vehicle: saline with Tween-80
  survivor count: 0 of 6

## CSc1nc2ccc(N=Cc3ccc([N+](=O)[O-])cc3)cc2s1
[11]
  survivor count: 6 of 6
dose: 100.0 mg/kg/injection, schedule: Q01DX009 (ip), vehicle: Klucel (hydroxypropylcellulose) (HPC)
  survivor count: 6 of 6

## CCCCCCC(C)NN (stereo not drawn)
[2]
  survivor count: 0 of 6
dose: 400.0 mg/kg/injection, schedule: Q04DX003 (ip), vehicle: saline with Tween-80
  survivor count: 0 of 6

## Nn1cnc2c(nnn2Cc2ccccc2)c1=O
dose: 400.0 mg/kg/injection, schedule: Q04DX002 (ip), vehicle: saline with Tween-80
  survivor count: 2 of 6

## Clc1ccc2ccc3ccccc3c2n1
[3]
  survivor count: 6 of 6
[4]
  survivor count: 6 of 6

## CNC(=O)OCc1nc(-c2ccccc2)sc1COC(=O)NC
[12]
  survivor count: 5 of 5
[13]
  survivor count: 4 of 5
[14]
  survivor count: 2 of 5

## CCOC(=O)C1=C(C)O/C(=C/c2ccco2)C1=O
[11]
  survivor count: 6 of 6
dose: 200.0 mg/kg/injection, schedule: Q01DX009 (ip), vehicle: Klucel (hydroxypropylcellulose) (HPC)
  survivor count: 2 of 6

## CCCCCCCCCC(=O)NC(CN1CCOCC1)C(=O)c1ccccc1 (stereo not drawn)
dose: 100.0 mg/kg/injection, schedule: Q04DX003 (ip), vehicle: saline
  survivor count: 6 of 6

## O=C1C=C(Nc2ccc(Br)cc2)C(Nc2ccc(Br)cc2)=CC1=O
dose: 75.0 mg/kg/injection, schedule: Q01DX005 (ip), vehicle: saline with Tween-80
  survivor count: 6 of 6

## N#Cc1ccc(NN=NCCF)cc1
dose: 12.5 mg/kg/injection, schedule: Q01DX005 (ip), vehicle: distilled water + Tween-80
  survivor count: 3 of 6
[15]
  T/C: 136 % of control [4 of 6 alive]
  survivor count: 0 of 6
[5]
  survivor count: 3 of 6
[12]
  survivor count: 0 of 6
[6]
  survivor count: 3 of 6
[13]
  survivor count: 0 of 6
[14]
  survivor count: 0 of 6
